Source: the supplement of paper PMC3353916

Test system: Sindbis virus TE/5'2J-GFP
Assay: percent infected (GFP+ in RFP+ ISG-expressing cells); higher = more infection (less antiviral activity)
Conditions: experiment: primary screen (single well)

Sequence	percent infected (BHK/HA-Zeo (control)) [%]	percent infected (BHK/NZAP-Zeo (ZAP)) [%]
MLLRSKPALPPPLMLLLLGPLGPLSPGALPRPAQAQDVVDLDFFTQEPLHLVSPSFLSVTIDANLATDPRFLILLGSPKLRTLARGLSPAYLRFGGTKTDFLIFDPKKESTFEERSYWQSQVNQDICKYGSIPPDVEEKLRLEWPYQEQLLLREHYQKKFKNSTYSRSSVDVLYTFANCSGLDLIFGLNALLRTADLQWNSSNAQLLLDYCSSKGYNISWELGNEPNSFLKKADIFINGSQLGEDFIQLHKLLRKSTFKNAKLYGPDVGQPRRKTAKMLKSFLKAGGEVIDSVTWHHYYLNGRTATKEDFLNPDVLDIFISSVQKVFQVVESTRPGKKVWLGETSSAYGGGAPLLSDTFAAGFMWLDKLGLSARMGIEVVMRQVFFGAGNYHLVDENFDPLPDYWLSLLFKKLVGTKVLMASVQGSKRRKLRVYLHCTNTDNPRYKEGDLTLYAINLHNVTKYLRLPYPFSNKQVDKYLLRPLGPHGLLSKSVQLNGLTLKMVDDQTLPPLMEKPLRPGSSLGLPAFSYSFFVIRNAKVAACI [HPSE]	63.4	47.5
MLPDWKSSLILMAYIIIFLTGLPANLLALRAFVGRIRQPQPAPVHILLLSLTLADLLLLLLLPFKIIEAASNFRWYLPKVVCALTSFGFYSSIYCSTWLLAGISIERYLGVAFPVQYKLSRRPLYGVIAALVAWVMSFGHCTIVIIVQYLNTTEQVRSGNEITCYENFTDNQLDVVLPVRLELCLVLFFIPMAVTIFCYWRFVWIMLSQPLVGAQRRRRAVGLAVVTLLNFLVCFGPYNVSHLVGYHQRKSPWWRSIAVVFSSLNASLDPLLFYFSSSVVRRAFGRGLQVLRNQGSSLLGRRGKDTAEGTNEDRGVGQGEGMPSSDFTTE [FFAR2]	98.9	97.4
MLPRVGCPALPLPPPPLLPLLLLLLGASGGGGGARAEVLFRCPPCTPERLAACGPPPVAPPAAVAAVAGGARMPCAELVREPGCGCCSVCARLEGEACGVYTPRCGQGLRCYPHPGSELPLQALVMGEGTCEKRRDAEYGASPEQVADNGDDHSEGGLVENHVDSTMNMLGGGGSAGRKPLKSGMKELAVFREKVTEQHRQMGKGGKHHLGLEEPKKLRPPPARTPCQQELDQVLERISTMRLPDERGPLEHLYSLHIPNCDKHGLYNLKQCKMSLNGQRGECWCVNPNTGKLIQGAPTIRGDPECHLFYNEQQEARGVHTQRMQ [IGFBP2]	95.3	
MLQRGLWPWRTRLLPTPGTWRPARPWPLPPPPQVLRVKLCGNVKYYQSHHYSTVVPPDEITVIYRHGLPLVTLTLPSRKERCQFVVKPMLSTVGSFLQDLQNEDKGIKTAAIFTADGNMISASTLMDILLMNDFKLVINKIAYDVQCPKREKPSNEHTAEMEHMKSLVHRLFTILHLEESQKKREHHLLEKIDHLKEQLQPLEQVKAGIEAHSEAKTSGLLWAGLALLSIQGGALAWLTWWVYSWDIMEPVTYFITFANSMVFFAYFIVTRQDYTYSAVKSRQFLQFFHKKSKQQHFDVQQYNKLKEDLAKAKESLKQARHSLCLQMQVEELNEKN [CCDC109B]	92.2	80.6
MLRAGAPTGDLPRAGEVHTGTTIMAVEFDGGVVMGSDSRVSAGEAVVNRVFDKLSPLHERIYCALSGSAADAQAVADMAAYQLELHGIELEEPPLVLAAANVVRNISYKYREDLSAHLMVAGWDQREGGQVYGTLGGMLTRQPFAIGGSGSTFIYGYVDAAYKPGMSPEECRRFTTDAIALAMSRDGSSGGVIYLVTITAAGVDHRVILGNELPKFYDE [PSMB9]	83.6	38.3
MLRGISQLPAVATMSWVLLPVLWLIVQTQAIAIKQTPELTLHEIVCPKKLHILHKREIKNNQTEKHGKEERYEPEVQYQMILNGEEIILSLQKTKHLLGPDYTETLYSPRGEEITTKPENMEHCYYKGNILNEKNSVASISTCDGLRGYFTHHHQRYQIKPLKSTDEKEHAVFTSNQEEQDPANHTCGVKSTDGKQGPIRISRSLKSPEKEDFLRAQKYIDLYLVLDNAFYKNYNENLTLIRSFVFDVMNLLNVIYNTIDVQVALVGMEIWSDGDKIKVVPSASTTFDNFLRWHSSNLGKKIHDHAQLLSGISFNNRRVGLAASNSLCSPSSVAVIEAKKKNNVALVGVMSHELGHVLGMPDVPFNTKCPSGSCVMNQYLSSKFPKDFSTSCRAHFERYLLSQKPKCLLQAPIPTNIMTTPVCGNHLLEVGEDCDCGSPKECTNLCCEALTCKLKPGTDCGGDAPNHTTE [ADAMDEC1]	97.6	83.6
MLTELEKALNSIIDVYHKYSLIKGNFHAVYRDDLKKLLETECPQYIRKKGADVWFKELDINTDGAVNFQEFLILVIKMGVAAHKKSHEESHKE [S100A8]	94.8	70.1
MMAKKPPKPAPRRIFQERLKITALPLYFEGFLLIKRSGYREYEHYWTELRGTTLFFYTDKKSIIYVDKLDIVDLTCLTEQNSTEKNCAKFTLVLPKEEVQLKTENTESGEEWRGFILTVTELSVPQNVSLLPGQVIKLHEVLEREKKRRIETEQSTSVEKEKEPTEDYVDVLNPMPACFYTVSRKEATEMLQKNPSLGNMILRPGSDSRNYSITIRQEIDIPRIKHYKVMSVGQNYTIELEKPVTLPNLFSVIDYFVKETRGNLRPFICSTDENTGQEPSMEGRSEKLKKNPHIA [STAP1]	98.2	93.6
MMAQSKANGSHYALTAIGLGMLVLGVIMAMWNLVPGFSAAEKPTAQGSNKTEVGGGILKSKTFSVAYVLVGAGVMLLLLSICLSIRDKRKQRQGEDLAHVQHPTGAGPHAQEEDSQEEEEEDEEAASRYYVPSYEEVMNTNYSEARGEEQNPRLSISLPSYESLTGLDETTPTSTRADVEASPGNPPDRQNSKLAKRLKPLKVRRIKSEKLHLKDFRINLPDKNVPPPSIEPLTPPPQYDEVQEKAPDTRPPD [TMEM51]	92.4	84.4
MMFRDQVGVLAGWFKGWNECEQTVALLSLLKRVSQTQARFLQLCLEHSLADCAELHVLEREANSPGIINQWQQESKDKVISLLLTHLPLLKPGNLDAKVEYMKLLPKILAHSIEHNQHIEESRQLLSYALIHPATSLEDRSALAMWLNHLEDRTSTSFGGQNRGRSDSVDYGQTHYYHQRQNSDDKLNGWQNSRDSGICINASNWQDKSMGCENGHVPLYSSSSVPTTINTIGTSTSTILSGQAHHSPLKRSVSLTPPMNVPNQPLGHGWMSHEDLRARGPQCLPSDHAPLSPQSSVASSGSGGSEHLEDQTTARNTFQEEGSGMKDVPAWLKSLRLHKYAALFSQMTYEEMMALTECQLEAQNVTKGARHKIVISIQKLKERQNLLKSLERDIIEGGSLRIPLQELHQMILTPIKAYSSPSTTPEARRREPQAPRQPSLMGPESQSPDCKDGAAATGATATPSAGASGGLQPHQLSSCDGELAVAPLPEGDLPGQFTRVMGKVCTQLLVSRPDEENISSYLQLIDKCLIHEAFTETQKKRLLSWKQQVQKLFRSFPRKTLLDISGYRQQRNRGFGQSNSLPTAGSVGGGMGRRNPRQYQIPSRNVPSARLGLLGTSGFVSSNQRNTTATPTIMKQGRQNLWFANPGGSNSMPSRTHSSVQRTRSLPVHTSPQNMLMFQQPEFQLPVTEPDINNRLESLCLSMTEHALGDGVDRTSTI [SAMD4A]	97.5	61.7
MMLQHPGQVSASEVSASAIVPCLSPPGSLVFEDFANLTPFVKEELRFAIQNKHLCHRMSSALESVTVSDRPLGVSITKAEVAPEEDERKKRRRERNKIAAAKCRNKKKEKTECLQKESEKLESVNAELKAQIEELKNEKQHLIYMLNLHRPTCIVRAQNGRTPEDERNLFIQQIKEGTLQS [ATF3]	96.7	93.3
MMTKHKKCFIIVGVLITTNIITLIVKLTRDSQSLCPYDWIGFQNKCYYFSKEEGDWNSSKYNCSTQHADLTIIDNIEEMNFLRRYKCSSDHWIGLKMAKNRTGQWVDGATFTKSFGMRGSEGCAYLSDDGAATARCYTERKWICRKRIH [CLEC2B]	96.1	94.9
MNAAASSYPMASLYVGDLHSDVTEAMLYEKFSPAGPVLSIRVCRDMITRRSLGYAYVNFQQPADAERALDTMNFDVIKGKPIRIMWSQRDPSLRKSGVGNVFIKNLDKSIDNKALYDTFSAFGNILSCKVVCDENGSKGYAFVHFETQEAADKAIEKMNGMLLNDRKVFVGRFKSRKEREAELGAKAKEFTNVYIKNFGEEVDDESLKELFSQFGKTLSVKVMRDPNGKSKGFGFVSYEKHEDANKAVEEMNGKEISGKIIFVGRAQKKVERQAELKRKFEQLKQERISRYQGVNLYIKNLDDTIDDEKLRKEFSPFGSITSAKVMLEDGRSKGFGFVCFSSPEEATKAVTEMNGRIVGSKPLYVALAQRKEERKAHLTNQYMQRVAGMRALPANAILNQFQPAAGGYFVPAVPQAQGRPPYYTPNQLAQMRPNPRWQQGGRPQGFQGMPSAIRQSGPRPTLRHLAPTGSECPDRLAMDFGGAGAAQQGLTDSCQSGGVPTAVQNLAPRAAVAAAAPRAVAPYKYASSVRSPHPAIQPLQAPQPAVHVQGQEPLTASMLAAAPPQEQKQMLGERLFPLIQTMHSNLAGKITGMLLEIDNSELLHMLESPESLRSKVDEAVAVLQAHHAKKEAAQKVGAVAAATS [PABPC4]	95.9	
MNAEPERKFGVVVVGVGRAGSVRMRDLRNPHPSSAFLNLIGFVSRRELGSIDGVQQISLEDALSSQEVEVAYICSESSSHEDYIRQFLNAGKHVLVEYPMTLSLAAAQELWELAEQKGKVLHEEHVELLMEEFAFLKKEVVGKDLLKGSLLFTAGPLEEERFGFPAFSGISRLTWLVSLFGELSLVSATLEERKEDQYMKMTVCLETEKKSPLSWIEEKGPGLKRNRYLSFHFKSGSLENVPNVGVNKNIFLKDQNIFVQKLLGQFSEKELAAEKKRILHCLGLAEEIQKYCCSRK [BLVRA]	98.3	95.8
MNHIVQTFSPVNSGQPPNYEMLKEEQEVAMLGVPHNPAPPMSTVIHIRSETSVPDHVVWSLFNTLFMNTCCLGFIAFAYSVKSRDRKMVGDVTGAQAYASTAKCLNIWALILGIFMTILLIIIPVLVVQAQR [IFITM2]	95.6	90.9
MNMANFLRGFEEKGIKNDRPEDQLSKEKKKILFSFCEVCNIQLNSAAQAQVHSNGKSHRKRVKQLSDGQPPPPAQASPSSNSSTGSTCHTTTLPALVRTPTLMMQPSLDIKPFMSFPVDSSSAVGLFPNFNTMDPVQKAVINHTFGVSIPPKKKQVISCNVCQLRFNSDSQAEAHYKGSKHAKKVKALDATKNKPKMVPSKDSAKANPSCSITPITGNNSDKSEDKGKLKASSSSQPSSSESGSFLLKSGTTPLPPGAATSPSKSTNGAPGTVVESEEEKAKKLLYCSLCKVAVNSLSQLEAHNTGSKHKTMVEARNGAGPIKSYPRPGSRLKMQNGSKGSGLQNKTFHCEICDVHVNSEIQLKQHISSRRHKDRVAGKPLKPKYSPYNKLQRSPSILAAKLAFQKDMMKPLAPAFLSSPLAAAAAVSSALSLPPRPSASLFQAPAIPPALLRPGHGPIRATPASILFAPY [ZNF385B]	98.2	94.2
MNMTQARVLVAAVVGLVAVLLYASIHKIEEGHLAVYYRGGALLTSPSGPGYHIMLPFITTFRSVQTTLQTDEVKNVPCGTSGGVMIYIDRIEVVNMLAPYAVFDIVRNYTADYDKTLIFNKIHHELNQFCSAHTLQEVYIELFDQIDENLKQALQKDLNLMAPGLTIQAVRVTKPKIPEAIRRNFELMEAEKTKLLIAAQKQKVVEKEAETERKKAVIEAEKIAQVAKIRFQQKVMEKETEKRISEIEDAAFLAREKAKADAEYYAAHKYATSNKHKLTPEYLELKKYQAIASNSKIYFGSNIPNMFVDSSCALKYSDIRTGRESSLPSKEALEPSGENVIQNKESTG [ERLIN1]	97.6	85.5

Single values of this set are uncertain.
